Results on 24 compounds are retold here after PubChem BioAssay AID330 (DTP/NCI, 2004).

The list is a part of this screen's results and no random one: it is rich in T/C values a quarter to a half above the control, in often repeated tests (any T/C) and in doses without a T/C. Other doses and runs of a compound stand elsewhere. T/C gives the treated animals as a percentage of the vehicle group. Some entries give survivors of the animals treated and no T/C: the source files T/C as zero there, which appears to mark a toxic dose or a test without result, not a measured value. Some doses without a T/C left all or most animals alive at the check, yet need not have been tolerated: survival well below the control is almost never listed, so the zero probably covers shortened survival too. Survivors were counted at the toxicity check, usually on the fifth day, unless a day is given; later deaths do not show. Schedules are NCI's codes, taken here to give the interval after Q, in days (D) or hours (H), and the number of doses after X. Some entries hold several experiments; the values are given in rising order. Additions like (4×) give the number of equal values in this list. Where survival is the endpoint, this PubChem deposit counts one and a half times the control or more as active, and values a quarter to a half above the control carry no call in these data; other NCI protocols may use other cut-offs. Some T/C values carry the count of animals alive at the toxicity check (mostly the fifth day); without a count, all were alive then.

The assay relates to P388 leukemia ip, CD2F1 mice, survival T/C. Nature of the assay: NCI In Vivo Anticancer Drug Screen. Data for tumor model P388 Leukemia (intraperitoneal) in CD2F1 (CDF1) mice. The note with it: T/C endpoint: median survival time, higher T/C = longer survival.
[1] abbreviates: dose: 100.0 mg/kg/injection, schedule: Q01DX009 (ip), vehicle: saline with Tween-80.
Setting [2] is: dose: 200.0 mg/kg/injection, schedule: Q01DX009 (ip), vehicle: saline with Tween-80.
[3] abbreviates: dose: 200.0 mg/kg/injection, schedule: Q01DX005 (ip), vehicle: saline with Tween-80.
Setting [4] is: dose: 240.0 mg/kg/injection, schedule: Q01DX005 (ip), vehicle: Klucel (hydroxypropylcellulose) (HPC).
Where [5] appears, read: dose: 100.0 mg/kg/injection, schedule: Q01DX005 (ip), vehicle: saline with Tween-80.
Where [6] appears, read: dose: 100.0 mg/kg/injection, schedule: Q01DX005 (ip), vehicle: Klucel (hydroxypropylcellulose) (HPC).
[7] abbreviates: dose: 200.0 mg/kg/injection, schedule: Q01DX005 (ip), vehicle: Klucel (hydroxypropylcellulose) (HPC).
[8] abbreviates: dose: 120.0 mg/kg/injection, schedule: Q01DX005 (ip), vehicle: saline.
[9] abbreviates: dose: 240.0 mg/kg/injection, schedule: Q01DX005 (ip), vehicle: saline.
Where [10] appears, read: dose: 25.0 mg/kg/injection, schedule: Q01DX005 (ip), vehicle: Klucel (hydroxypropylcellulose) (HPC).

Turning to `Oc1c(-c2ccccc2)cc(-[n+]2c(-c3ccccc3)cc(-c3ccccc3)cc2-c2ccccc2)cc1-c1ccccc1`, the survivor count reads like this: (dose: 6.0 mg/kg/injection, schedule: Q01DX009 (ip), vehicle: saline with Tween-80) 3 of 6; (dose: 50.0 mg/kg/injection, schedule: Q01DX009 (ip), vehicle: saline with Tween-80) 0 of 6; under setting [1], 0 of 6; under setting [2], 0 of 6.

Take `CC(C)(C(=O)O)C(C)(C)C(=O)O`: the survivor count (dose: 6.25 mg/kg/injection, schedule: Q01DX001 (ip), vehicle: saline) was 3 of 6.

For the compound `Cc1cc(C2c3ccccc3-c3ccccc32)cc(C)c1O`, the survivor count reads like this: (dose: 15.0 mg/kg/injection, schedule: Q01DX005 (ip), vehicle: saline with Tween-80) 6 of 6; (dose: 30.0 mg/kg/injection, schedule: Q01DX005 (ip), vehicle: saline with Tween-80) 6 of 6; (dose: 60.0 mg/kg/injection, schedule: Q01DX005 (ip), vehicle: saline with Tween-80) 6 of 6; (dose: 120.0 mg/kg/injection, schedule: Q01DX005 (ip), vehicle: saline with Tween-80) 6 of 6.

As to `Cc1cc(NCCCCN2CCOCC2)nc2ccc3ccccc3c12`, the survivor count under setting [3] was 0 of 5.

Regarding `COc1ccc(C2OC3=C(Nc4ccc(Cl)cc4N3)C2=O)c(OC)c1` (stereo unspecified), the survivor count by setting is: (dose: 7.5 mg/kg/injection, schedule: Q01DX005 (ip), vehicle: Klucel (hydroxypropylcellulose) (HPC)) 6 of 6; (dose: 15.0 mg/kg/injection, schedule: Q01DX005 (ip), vehicle: Klucel (hydroxypropylcellulose) (HPC)) 6 of 6; (dose: 30.0 mg/kg/injection, schedule: Q01DX005 (ip), vehicle: Klucel (hydroxypropylcellulose) (HPC)) 6 of 6; (dose: 60.0 mg/kg/injection, schedule: Q01DX005 (ip), vehicle: Klucel (hydroxypropylcellulose) (HPC)) 5 of 6 and 6 of 6; under setting [4], 3 of 6.

For `CCCCCCCCOCCS(=O)(=O)O`, the survivor count (dose: 240.0 mg/kg/injection, schedule: Q01DX005 (ip), vehicle: saline with Tween-80) is 5 of 6.

For `CCCCCN(CCCCC)CC(C)(O)CNc1cc(OC)cc2cccnc12` (stereo unspecified), the survivor count (dose: 200.0 mg/kg/injection, schedule: Q01DX005 (ip), vehicle: saline) is listed as 0 of 5.

`Clc1ccccc1C(Nc1cnccn1)Nc1cnccn1`: the T/C under setting [5] is 128 % of control and the T/C under setting [3] is 145 % of control.

As for `COc1c(CCl)cc(-c2sc3ccccc3c(=O)c2CCl)cc1CCl`, the T/C under setting [5] is 128 % of control.

On to `CCc1nc(N)nc(N)c1-c1ccc(NCCN)c(N)c1`, for which the survivor count is 2 of 6 under setting [6] and 0 of 6 under setting [7].

`CCCCCCCCC[N+]1([O-])CCCCCC1`: the survivor count reads like this: (dose: 100.0 mg/kg/injection, schedule: Q01DX009 (ip), vehicle: saline) 0 of 6; (dose: 200.0 mg/kg/injection, schedule: Q01DX009 (ip), vehicle: saline) 0 of 6.

Consider `CN(C)CCCNC(=O)Cc1cc(O)c2c(c1O)C(=O)c1ccccc1C2=O`, for which, under “dose: 400.0 mg/kg/injection, schedule: Q04DX003 (ip), vehicle: saline with Tween-80”, the survivor count is 2 of 6.

Turning to `CC12CCC(N3CCCC3)CC1=CCC1C2CCC2(C)C1CCCN2CCO` (stereo unspecified), the survivor count is 3 of 5 (dose: 100.0 mg/kg/injection, schedule: Q01DX001 (ip), vehicle: Klucel (hydroxypropylcellulose) (HPC)); 0 of 5 (dose: 200.0 mg/kg/injection, schedule: Q01DX001 (ip), vehicle: Klucel (hydroxypropylcellulose) (HPC)); 0 of 5 (dose: 400.0 mg/kg/injection, schedule: Q01DX001 (ip), vehicle: Klucel (hydroxypropylcellulose) (HPC)).

On to `COc1cccc(C(=O)N/N=C(\C#N)c2cccc(OC)c2)c1`, for which the survivor count under setting [3] is 6 of 6.

With `CC1=CC(=O)C=CC1(C)C(Cl)(Cl)Cl` (stereo unspecified), for the setting “dose: 400.0 mg/kg/injection, schedule: Q01DX009 (ip), vehicle: saline with Tween-80”, the survivor count is recorded as 4 of 6.

As to `O=C1CCC([N+](=O)[O-])C(c2ccccc2)N1` (stereo unspecified), the survivor count runs as follows: under setting [1], 3 of 6; under setting [2], 4 of 6.

As to `CN(C)CCC1(C)OCCC2=C1Cc1ccccc12` (stereo unspecified), the survivor count under setting [2] is 1 of 6.

`NC(Cc1ccccc1)C(=O)Nc1cccnc1` (stereo unspecified): the survivor count by setting is: under setting [8], 0 of 6; under setting [9], 0 of 6.

Regarding `CC(=O)N(OC1OC(CO)C(O)C(O)C1O)c1ccc(Oc2ccc(Cl)cc2)cc1` (stereo unspecified), under setting [4], the survivor count is on record as 3 of 6.

In the case of `COc1cc2cc(c1Cl)NC(=O)CC(OC(=O)C(C)N(C)C(=O)C(C)C)C1(C)OC1C(C)C1CC(O)(NC(=O)O1)C(OC)/C=C/C=C(C)C2OC` (stereo unspecified), the T/C (dose: 4.0 micrograms/kg/injection, schedule: Q01DX009 (ip), vehicle: distilled water + Tween-80 + alcohol) was 130 % of control and the T/C (dose: 8.0 micrograms/kg/injection, schedule: Q01DX009 (ip), vehicle: distilled water + Tween-80 + alcohol) was 136 % of control. Further, under “dose: 128.0 micrograms/kg/injection, schedule: Q01DX009 (ip), vehicle: distilled water + Tween-80 + alcohol”, the survivor count is on record as 6 of 6.

Regarding `CN(C)CC(CN(C)C)C(=O)/C=C/c1ccc(Cl)cc1Cl`, the survivor count reads like this: (dose: 60.0 mg/kg/injection, schedule: Q01DX005 (ip), vehicle: saline) 0 of 6; under setting [8], 0 of 6; under setting [9], 0 of 6.

For the compound `NSc1ccc([N+](=O)[O-])cc1`, for the setting “dose: 100.0 mg/kg/injection, schedule: Q01DX001 (ip), vehicle: other”, the survivor count was 2 of 6.

For `COC1CC2C=C(C)/C=C/C=C/C(=O)NC(c3ccccc3)C/C=C/CCC(O)CC(=O)C2=C1O` (stereo unspecified), the T/C reads like this: (dose: 3.12 mg/kg/injection, schedule: Q01DX005 (ip), vehicle: Klucel (hydroxypropylcellulose) (HPC), evaluated on day 20) 117 % of control; (dose: 3.12 mg/kg/injection, schedule: Q01DX005 (ip), vehicle: Klucel (hydroxypropylcellulose) (HPC), evaluated on day 30) 97, 100, 114, 122 % of control; (dose: 6.25 mg/kg/injection, schedule: Q01DX005 (ip), vehicle: Klucel (hydroxypropylcellulose) (HPC), evaluated on day 20) 129 % of control; (dose: 6.25 mg/kg/injection, schedule: Q01DX005 (ip), vehicle: Klucel (hydroxypropylcellulose) (HPC), evaluated on day 30) 108, 117, 118, 124 % of control; (dose: 12.5 mg/kg/injection, schedule: Q01DX005 (ip), vehicle: Klucel (hydroxypropylcellulose) (HPC), evaluated on day 20) 133 % of control; (dose: 12.5 mg/kg/injection, schedule: Q01DX005 (ip), vehicle: Klucel (hydroxypropylcellulose) (HPC), evaluated on day 30) 124, 127, 134, 140 % of control. The T/C under setting [10] is 153 [5 of 6 alive] and 161 % of control. The survivor count under setting [10] is 3 of 6, 5 of 5, 6 of 6; the survivor count (dose: 50.0 mg/kg/injection, schedule: Q01DX005 (ip), vehicle: Klucel (hydroxypropylcellulose) (HPC)) was 0 of 5, 0 of 6 (2×), 1 of 5, 2 of 6; the survivor count under setting [6] is listed as 0 of 5; the survivor count under setting [7] is reported as 0 of 5; the survivor count (dose: 400.0 mg/kg/injection, schedule: Q01DX005 (ip), vehicle: Klucel (hydroxypropylcellulose) (HPC)) was 0 of 5.

With `CNC(=S)NNc1ccc(C)cc1`, under “dose: 50.0 mg/kg/injection, schedule: Q01DX009 (ip), vehicle: other”, the survivor count was 6 of 6.
